Five molecules from the supplement of paper PMC10032668 can be followed below.

Chains of the proteins cited; added tags and fusions are not shown.
ATP6V1F, Q16864, UniProt Q16864, whole entry: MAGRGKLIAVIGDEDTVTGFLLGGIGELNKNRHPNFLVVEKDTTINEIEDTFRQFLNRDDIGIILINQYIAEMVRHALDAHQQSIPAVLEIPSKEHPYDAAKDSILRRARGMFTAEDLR
ACTL6A, O96019, UniProt O96019, whole entry: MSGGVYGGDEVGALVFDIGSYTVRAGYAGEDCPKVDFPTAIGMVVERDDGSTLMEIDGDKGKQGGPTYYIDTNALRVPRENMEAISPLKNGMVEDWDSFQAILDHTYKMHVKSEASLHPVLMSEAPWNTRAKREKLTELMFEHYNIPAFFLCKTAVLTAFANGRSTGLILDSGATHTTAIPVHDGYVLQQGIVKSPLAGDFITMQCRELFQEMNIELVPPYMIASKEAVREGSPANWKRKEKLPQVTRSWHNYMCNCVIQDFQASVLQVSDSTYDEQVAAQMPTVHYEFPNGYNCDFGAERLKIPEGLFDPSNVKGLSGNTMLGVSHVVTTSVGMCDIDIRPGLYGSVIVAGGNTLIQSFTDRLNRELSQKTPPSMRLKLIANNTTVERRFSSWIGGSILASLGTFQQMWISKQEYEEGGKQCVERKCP
EIF3L, Q9Y262, UniProt Q9Y262, whole entry: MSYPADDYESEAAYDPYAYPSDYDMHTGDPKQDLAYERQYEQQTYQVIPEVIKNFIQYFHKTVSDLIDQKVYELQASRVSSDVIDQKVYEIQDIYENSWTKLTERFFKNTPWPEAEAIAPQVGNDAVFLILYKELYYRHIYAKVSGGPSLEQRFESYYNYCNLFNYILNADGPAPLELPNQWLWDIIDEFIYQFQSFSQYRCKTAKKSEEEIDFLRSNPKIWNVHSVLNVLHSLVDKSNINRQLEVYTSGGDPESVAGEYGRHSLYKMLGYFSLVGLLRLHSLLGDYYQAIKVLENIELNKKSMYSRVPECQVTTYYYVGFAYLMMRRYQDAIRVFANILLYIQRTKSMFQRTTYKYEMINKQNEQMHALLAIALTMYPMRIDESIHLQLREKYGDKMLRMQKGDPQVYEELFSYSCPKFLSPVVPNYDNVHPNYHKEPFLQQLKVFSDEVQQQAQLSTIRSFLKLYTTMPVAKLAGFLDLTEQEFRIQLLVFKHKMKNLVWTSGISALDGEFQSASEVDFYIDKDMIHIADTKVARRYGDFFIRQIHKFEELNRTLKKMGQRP
INTS2, Q9H0H0, UniProt Q9H0H0, whole entry: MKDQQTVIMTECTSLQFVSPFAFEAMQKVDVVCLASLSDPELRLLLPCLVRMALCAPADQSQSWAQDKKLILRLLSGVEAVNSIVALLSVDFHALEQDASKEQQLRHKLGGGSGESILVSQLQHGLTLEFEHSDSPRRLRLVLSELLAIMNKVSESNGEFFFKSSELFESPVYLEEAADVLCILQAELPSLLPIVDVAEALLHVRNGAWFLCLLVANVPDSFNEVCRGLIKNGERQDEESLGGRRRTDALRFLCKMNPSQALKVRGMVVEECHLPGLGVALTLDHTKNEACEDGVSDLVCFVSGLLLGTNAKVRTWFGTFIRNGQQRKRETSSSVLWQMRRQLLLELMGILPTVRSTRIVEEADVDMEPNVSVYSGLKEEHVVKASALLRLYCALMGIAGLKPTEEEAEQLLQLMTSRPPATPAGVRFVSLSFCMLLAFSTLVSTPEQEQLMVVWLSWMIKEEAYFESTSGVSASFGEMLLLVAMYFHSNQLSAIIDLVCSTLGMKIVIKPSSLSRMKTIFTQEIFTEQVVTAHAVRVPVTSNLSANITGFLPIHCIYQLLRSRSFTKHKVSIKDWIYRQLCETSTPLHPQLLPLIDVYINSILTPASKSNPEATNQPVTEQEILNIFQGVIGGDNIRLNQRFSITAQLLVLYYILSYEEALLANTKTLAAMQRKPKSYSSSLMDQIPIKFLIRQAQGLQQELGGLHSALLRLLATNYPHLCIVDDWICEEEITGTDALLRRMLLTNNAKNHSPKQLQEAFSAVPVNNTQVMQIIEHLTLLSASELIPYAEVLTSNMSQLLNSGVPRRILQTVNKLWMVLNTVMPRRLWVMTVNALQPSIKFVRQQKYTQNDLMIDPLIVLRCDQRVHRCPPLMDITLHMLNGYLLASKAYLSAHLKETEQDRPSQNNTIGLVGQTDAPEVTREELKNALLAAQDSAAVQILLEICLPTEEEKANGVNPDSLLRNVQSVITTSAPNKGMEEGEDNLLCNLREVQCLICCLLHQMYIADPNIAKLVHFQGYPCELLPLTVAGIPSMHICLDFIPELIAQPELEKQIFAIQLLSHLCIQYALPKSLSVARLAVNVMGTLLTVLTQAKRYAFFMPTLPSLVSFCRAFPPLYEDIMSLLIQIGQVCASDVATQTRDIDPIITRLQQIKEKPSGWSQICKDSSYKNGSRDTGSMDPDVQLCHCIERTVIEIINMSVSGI
RAD18, Q9NS91, UniProt Q9NS91, whole entry: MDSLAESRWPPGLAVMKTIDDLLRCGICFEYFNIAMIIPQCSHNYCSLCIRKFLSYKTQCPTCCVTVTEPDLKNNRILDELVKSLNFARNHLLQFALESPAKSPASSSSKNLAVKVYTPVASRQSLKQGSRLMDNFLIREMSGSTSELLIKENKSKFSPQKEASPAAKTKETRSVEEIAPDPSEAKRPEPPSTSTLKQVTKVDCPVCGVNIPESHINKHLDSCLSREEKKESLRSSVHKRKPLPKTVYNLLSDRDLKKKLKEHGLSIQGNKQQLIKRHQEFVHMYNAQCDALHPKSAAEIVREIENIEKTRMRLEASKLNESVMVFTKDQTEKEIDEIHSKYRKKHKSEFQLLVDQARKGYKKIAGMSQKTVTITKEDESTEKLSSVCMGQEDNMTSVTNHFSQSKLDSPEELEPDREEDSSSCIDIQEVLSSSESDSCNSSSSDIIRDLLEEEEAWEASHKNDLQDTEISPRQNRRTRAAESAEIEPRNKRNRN
TRAPPC2L, Q9UL33, UniProt Q9UL33, whole entry: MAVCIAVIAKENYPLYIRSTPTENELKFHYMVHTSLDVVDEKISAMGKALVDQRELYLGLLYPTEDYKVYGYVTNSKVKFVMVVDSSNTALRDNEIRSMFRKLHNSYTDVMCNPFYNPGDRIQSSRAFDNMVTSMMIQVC
ACTBL2, Q562R1, UniProt Q562R1, whole entry: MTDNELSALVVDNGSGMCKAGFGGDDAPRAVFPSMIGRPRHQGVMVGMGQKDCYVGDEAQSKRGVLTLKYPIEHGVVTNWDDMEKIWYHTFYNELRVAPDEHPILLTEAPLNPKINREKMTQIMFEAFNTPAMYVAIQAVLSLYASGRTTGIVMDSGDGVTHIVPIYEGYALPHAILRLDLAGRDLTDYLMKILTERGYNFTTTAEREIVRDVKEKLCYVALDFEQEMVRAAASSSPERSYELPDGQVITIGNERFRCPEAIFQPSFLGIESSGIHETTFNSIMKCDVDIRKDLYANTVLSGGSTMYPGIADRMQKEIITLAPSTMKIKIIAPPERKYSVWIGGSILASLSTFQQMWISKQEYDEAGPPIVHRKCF
DCTN5, Q9BTE1, UniProt Q9BTE1, whole entry: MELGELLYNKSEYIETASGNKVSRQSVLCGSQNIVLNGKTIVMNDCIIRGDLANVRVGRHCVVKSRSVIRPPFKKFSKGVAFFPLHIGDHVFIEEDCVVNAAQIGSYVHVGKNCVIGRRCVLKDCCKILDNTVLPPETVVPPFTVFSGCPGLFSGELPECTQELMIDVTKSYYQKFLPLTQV
EP300, Q09472, UniProt Q09472, whole entry: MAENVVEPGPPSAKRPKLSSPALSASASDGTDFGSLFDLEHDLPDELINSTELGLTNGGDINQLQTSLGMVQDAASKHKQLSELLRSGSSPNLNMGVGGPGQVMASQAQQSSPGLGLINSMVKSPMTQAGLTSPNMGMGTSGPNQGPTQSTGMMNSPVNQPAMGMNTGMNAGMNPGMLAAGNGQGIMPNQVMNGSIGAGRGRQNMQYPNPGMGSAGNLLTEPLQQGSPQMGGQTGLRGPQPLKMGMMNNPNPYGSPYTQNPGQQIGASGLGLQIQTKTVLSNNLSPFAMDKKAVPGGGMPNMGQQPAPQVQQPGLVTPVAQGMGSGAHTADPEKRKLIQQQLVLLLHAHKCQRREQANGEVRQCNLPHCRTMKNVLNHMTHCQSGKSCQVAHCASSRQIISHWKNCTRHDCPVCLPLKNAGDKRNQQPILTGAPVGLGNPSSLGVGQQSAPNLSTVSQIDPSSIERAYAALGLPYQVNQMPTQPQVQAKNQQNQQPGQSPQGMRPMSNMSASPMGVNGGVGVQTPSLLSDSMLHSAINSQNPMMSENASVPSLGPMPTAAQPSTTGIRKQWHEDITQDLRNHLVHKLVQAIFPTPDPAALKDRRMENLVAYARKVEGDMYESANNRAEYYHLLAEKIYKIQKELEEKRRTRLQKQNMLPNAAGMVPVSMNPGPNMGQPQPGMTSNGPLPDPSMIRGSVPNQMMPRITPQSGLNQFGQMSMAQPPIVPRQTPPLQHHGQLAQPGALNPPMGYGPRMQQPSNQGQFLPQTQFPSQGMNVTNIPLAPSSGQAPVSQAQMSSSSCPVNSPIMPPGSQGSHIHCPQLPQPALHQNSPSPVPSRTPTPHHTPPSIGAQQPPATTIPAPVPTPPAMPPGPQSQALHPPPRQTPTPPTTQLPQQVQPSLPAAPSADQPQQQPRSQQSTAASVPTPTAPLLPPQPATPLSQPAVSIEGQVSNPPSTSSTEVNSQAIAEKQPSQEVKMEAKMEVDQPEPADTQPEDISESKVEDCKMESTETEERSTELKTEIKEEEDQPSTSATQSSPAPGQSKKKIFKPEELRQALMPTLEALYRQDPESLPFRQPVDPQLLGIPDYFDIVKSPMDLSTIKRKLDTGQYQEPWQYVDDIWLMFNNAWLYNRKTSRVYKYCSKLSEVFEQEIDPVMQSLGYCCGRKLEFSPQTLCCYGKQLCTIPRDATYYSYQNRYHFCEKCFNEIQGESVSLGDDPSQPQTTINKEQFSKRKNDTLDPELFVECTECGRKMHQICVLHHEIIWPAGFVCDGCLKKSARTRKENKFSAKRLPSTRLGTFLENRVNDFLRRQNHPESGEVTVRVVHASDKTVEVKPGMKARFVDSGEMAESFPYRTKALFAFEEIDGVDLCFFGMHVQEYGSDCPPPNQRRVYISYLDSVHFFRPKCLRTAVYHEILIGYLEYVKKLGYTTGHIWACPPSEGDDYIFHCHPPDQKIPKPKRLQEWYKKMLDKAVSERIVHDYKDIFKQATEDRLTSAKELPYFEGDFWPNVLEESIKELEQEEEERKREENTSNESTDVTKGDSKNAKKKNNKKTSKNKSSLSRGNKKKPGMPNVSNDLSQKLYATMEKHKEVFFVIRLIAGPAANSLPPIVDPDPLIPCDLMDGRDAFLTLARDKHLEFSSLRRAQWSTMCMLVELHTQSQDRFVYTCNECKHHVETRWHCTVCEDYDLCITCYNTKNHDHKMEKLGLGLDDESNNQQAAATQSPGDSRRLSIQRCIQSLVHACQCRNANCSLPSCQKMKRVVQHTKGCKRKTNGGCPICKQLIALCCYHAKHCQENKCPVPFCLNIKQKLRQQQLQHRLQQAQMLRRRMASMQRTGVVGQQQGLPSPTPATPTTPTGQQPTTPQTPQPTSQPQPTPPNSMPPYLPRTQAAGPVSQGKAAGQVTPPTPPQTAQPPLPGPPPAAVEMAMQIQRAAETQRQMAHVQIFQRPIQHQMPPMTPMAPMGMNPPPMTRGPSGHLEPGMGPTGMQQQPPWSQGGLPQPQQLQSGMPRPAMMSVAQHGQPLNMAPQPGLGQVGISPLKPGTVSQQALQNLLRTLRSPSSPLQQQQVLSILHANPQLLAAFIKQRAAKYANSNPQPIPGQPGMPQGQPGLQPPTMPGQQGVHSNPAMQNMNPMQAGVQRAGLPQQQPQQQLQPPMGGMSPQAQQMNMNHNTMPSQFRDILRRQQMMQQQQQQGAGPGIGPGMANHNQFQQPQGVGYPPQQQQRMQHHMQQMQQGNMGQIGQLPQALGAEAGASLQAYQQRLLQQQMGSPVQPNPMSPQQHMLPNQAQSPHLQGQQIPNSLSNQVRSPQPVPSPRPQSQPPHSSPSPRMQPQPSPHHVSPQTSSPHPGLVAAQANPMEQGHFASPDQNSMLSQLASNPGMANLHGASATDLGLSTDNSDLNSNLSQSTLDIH
PFN2, P35080, UniProt P35080, whole entry: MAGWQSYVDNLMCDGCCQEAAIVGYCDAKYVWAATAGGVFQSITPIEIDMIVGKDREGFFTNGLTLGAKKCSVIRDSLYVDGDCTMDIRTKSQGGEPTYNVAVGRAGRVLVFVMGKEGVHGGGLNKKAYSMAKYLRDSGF
SNX1, Q13596, UniProt Q13596, whole entry: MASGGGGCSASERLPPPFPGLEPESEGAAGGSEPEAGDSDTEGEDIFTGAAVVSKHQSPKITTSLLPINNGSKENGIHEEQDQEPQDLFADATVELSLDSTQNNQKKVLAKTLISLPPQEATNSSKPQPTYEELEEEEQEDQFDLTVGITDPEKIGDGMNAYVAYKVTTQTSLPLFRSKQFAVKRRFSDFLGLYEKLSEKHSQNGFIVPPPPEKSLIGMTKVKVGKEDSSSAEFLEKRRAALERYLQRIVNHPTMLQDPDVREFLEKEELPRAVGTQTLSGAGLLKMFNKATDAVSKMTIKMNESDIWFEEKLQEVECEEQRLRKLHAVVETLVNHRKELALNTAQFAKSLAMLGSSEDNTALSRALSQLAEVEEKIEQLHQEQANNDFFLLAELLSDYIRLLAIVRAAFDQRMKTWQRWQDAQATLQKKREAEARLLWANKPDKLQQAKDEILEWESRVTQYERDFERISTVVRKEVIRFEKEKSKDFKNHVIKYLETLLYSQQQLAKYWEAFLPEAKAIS

The list shows a part of the results. The list holds hits alone, and they repeat only in part.

Holding throughout (test): PRISMA enrichment of interactor (LFQ) in peptide spot vs all other peptide spots (log2 fold change); higher = stronger / more specific binding of the interactor to the peptide
The target in one assay is ACSL3, O95573. How it is done: (§1)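 PRISMA: 15-aa overlapping tiles (offset 8 aa) of 60 microproteins, plus SOS1/GLUT1 control peptides, were spot-synthesized on cellulose membranes in triplicate. Membranes were incubated with benzonase-treated HEK293T lysate, and bound proteins were identified by LC-MS/MS with LFQ. Enrichment is the log2 fold change of each protein in one spot versus all other spots. Only interactors passing the significance cutoff are listed.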

Another assay has as its target ATP6V1F, Q16864. How it is done: as §1
The target of another assay is EIF2B2, P49770. How it is done:
as §1

In a further assay the target is KNOP1, Q1ED39. Here is the method:
as §1

The next assay addresses STAG2, Q8N3U4. How it is done:
as §1

The target of another assay is UMPS, P11172. Here is the method: as §1
Another assay addresses USP15, Q9Y4E8. How it is done:
as §1

In the next assay the target is ACTL6A, O96019. How it is done: as §1
For a further assay, the target named is CCT2, P78371. How it is done: as §1
Another assay concerns the target CEP290, O15078. How it is done: as §1
A further assay has as its target COPG1, Q9Y678. How it is done: as §1
A further assay deals with COQ8A, Q8NI60. Here is the method:
as §1

The next assay addresses CYC1, P08574. How it is done: as §1
Another assay deals with DHX30, Q7L2E3. How it is done:
as §1

The target in the next assay is EIF3L, Q9Y262. Here is the method:
as §1

The target of a further assay is ERAL1, O75616. Here is the method:
as §1

The next assay concerns the target GMNN, O75496. How it is done: as §1
A further assay deals with HP1BP3, Q5SSJ5. Here is the method: as §1
The target in the next assay is INTS2, Q9H0H0. Here is the method:
as §1

A further assay addresses IRAK1, P51617. Here is the method: as §1
A further assay concerns the target LYZ, P61626. How it is done: as §1
The next assay addresses MMS19, Q96T76. How it is done:
as §1

In another assay the target is MRPL18, Q9H0U6. How it is done: as §1
The target in another assay is MRPL21, Q7Z2W9. How it is done:
as §1

The next assay concerns the target NEPRO, Q6NW34. Here is the method:
as §1

Another assay has as its target NOP53, Q9NZM5. How it is done: as §1
The target of another assay is NUP107, P57740. How it is done: as §1
A further assay addresses PDCD5, O14737. Here is the method: as §1
Another assay deals with PPIG, Q13427. How it is done:
as §1

Another assay has as its target PUF60, Q9UHX1. Here is the method: as §1
A further assay concerns the target RAD18, Q9NS91. Here is the method:
as §1

The next assay deals with RPL28, P46779. Here is the method:
as §1

A further assay has as its target SLC25A22, Q9H936. Here is the method: as §1
Substrate in assay [1]: SON, P18583
Here is the method: as §1

The target of a further assay is TRA2A, Q13595. Here is the method:
as §1

For the next assay, the target named is TRAPPC2L, Q9UL33. Here is the method:
as §1

The next assay addresses UBL5, Q9BZL1. How it is done:
as §1

In the next assay the target is UPF1, Q92900. Here is the method: as §1
For a further assay, the target named is ACTBL2, Q562R1. Here is the method:
as §1

Another assay has as its target ARCN1, P48444. Here is the method: as §1
A further assay concerns the target BZW1, Q7L1Q6. How it is done:
as §1

For another assay, the target named is CHERP, Q8IWX8. How it is done:
as §1

In the next assay the target is GAPVD1, Q14C86. Here is the method: as §1
For the next assay, the target named is OGT, O15294. Here is the method: as §1
The target of a further assay is PDCD6IP, Q8WUM4. How it is done:
as §1

A further assay addresses SCPEP1, Q9HB40. Here is the method: as §1
The target of another assay is YARS, P54577. Here is the method:
as §1

Another assay has as its target ARL6IP5, O75915. How it is done:
as §1

For another assay, the target named is DCTN5, Q9BTE1. Here is the method: as §1
Another assay deals with FANCI, Q9NVI1. Here is the method: as §1
The next assay addresses FBXO3, Q9UK99. How it is done: as §1
Another assay has as its target GLYR1, Q49A26. Here is the method:
as §1

For another assay, the target named is LETM1, O95202. Here is the method:
as §1

For the next assay, the target named is MCRIP1, C9JLW8. Here is the method: as §1
Another assay concerns the target RAB8A, P61006. Here is the method:
as §1

The target in another assay is RER1, O15258. How it is done: as §1
A further assay concerns the target RPRD1A, Q96P16. Here is the method:
as §1

Another assay concerns the target RUVBL2, Q9Y230. Here is the method:
as §1

Another assay addresses SAFB2, Q14151. Here is the method: as §1
Another assay has as its target SAP18, O00422. How it is done: as §1
A further assay concerns the target SNRPF, P62306. Here is the method:
as §1

A further assay addresses ZCCHC17, Q9NP64. Here is the method: as §1
In another assay the target is ACTB, P60709. Here is the method:
as §1

The next assay deals with C18orf21, Q32NC0. How it is done: as §1
A further assay deals with CHD4, Q14839. How it is done: as §1
For the next assay, the target named is CLPB, Q9H078. Here is the method:
as §1

The next assay addresses CMSS1, Q9BQ75. How it is done:
as §1

Another assay addresses DHX37, Q8IY37. Here is the method: as §1
Another assay has as its target DUSP9, Q99956. How it is done:
as §1

The target of a further assay is EIF2S2, P20042. Here is the method:
as §1

The target of a further assay is EP300, Q09472. Here is the method:
as §1

A further assay addresses JPT2, Q9H910. How it is done:
as §1

A further assay concerns the target MAP4, P27816. Here is the method: as §1
Another assay deals with MED15, Q96RN5. How it is done:
as §1

A further assay addresses NEK7, Q8TDX7. Here is the method: as §1
For the next assay, the target named is PFN2, P35080. How it is done:
as §1

The target of another assay is RBM17, Q96I25. Here is the method:
as §1

A further assay addresses RBM27, Q9P2N5. How it is done:
as §1

For a further assay, the target named is RCE1, Q9Y256. Here is the method: as §1
The target in a further assay is RFC1, P35251. How it is done: as §1
The target in the next assay is RGPD5, Q99666. How it is done: as §1
A further assay addresses RRP9, O43818. How it is done: as §1
A further assay has as its target SAFB, Q15424. How it is done:
as §1

A further assay has as its target SART3, Q15020. Here is the method:
as §1

The next assay addresses SNX1, Q13596. Here is the method:
as §1

The target of the next assay is SURF6, O75683. How it is done: as §1
The target in a further assay is TBCD, Q9BTW9. How it is done:
as §1

Another assay deals with ZNF428, Q96B54. How it is done: as §1

With GPFSGNIFLVTMKGQ [BANCR], the “PRISMA enrichment of interactor (log2)” value worked out at 3.76 with ACSL3, O95573; 3.83 with ATP6V1F, Q16864; 4.45 in the assay with EIF2B2, P49770; 3.73 in the assay with KNOP1, Q1ED39; 4.96 with STAG2, Q8N3U4; 5.27 in the assay with UMPS, P11172. Besides, the “PRISMA enrichment of interactor (log2)” value with USP15, Q9Y4E8 turned out to be 4.1.
Take MAAFARSAITASLRG [JPX]: the “PRISMA enrichment of interactor (log2)” value stood at 5.03 with ACTL6A, O96019; 5.01 in the assay with CCT2, P78371; 6.15 in the assay with CEP290, O15078; 5.09 with COPG1, Q9Y678; 5.44 in the assay with COQ8A, Q8NI60; 8.55 with CYC1, P08574. Besides, the “PRISMA enrichment of interactor (log2)” value with DHX30, Q7L2E3 turned out to be 5.32; with EIF3L, Q9Y262 it was 5.64; in the assay with ERAL1, O75616, 7.8; with GMNN, O75496 it was 4.41; in the assay with HP1BP3, Q5SSJ5 it was 5.28; with INTS2, Q9H0H0 it was 8.59. Besides, the “PRISMA enrichment of interactor (log2)” value with IRAK1, P51617 was found to be 4.32; with LYZ, P61626, 3.87; with MMS19, Q96T76, 6.92; with MRPL18, Q9H0U6 it was 7.94; with MRPL21, Q7Z2W9, 5.3; in the assay with NEPRO, Q6NW34 it was 5.13. Further, the “PRISMA enrichment of interactor (log2)” value in the assay with NOP53, Q9NZM5 was found to be 6.12; with NUP107, P57740 it was 4.93; with PDCD5, O14737 it was 5.95; with PPIG, Q13427 it was 6.45; with PUF60, Q9UHX1, 9.73; in the assay with RAD18, Q9NS91, 4.48. Also, the “PRISMA enrichment of interactor (log2)” value was 4.47 in the assay with RPL28, P46779; 4.46 with SLC25A22, Q9H936; 6.32 in assay [1]; 5.56 with TRA2A, Q13595; 4.08 in the assay with TRAPPC2L, Q9UL33; 6.15 in the assay with UBL5, Q9BZL1. Besides, in the assay with UPF1, Q92900, the “PRISMA enrichment of interactor (log2)” value was found to be 4.58.
RIKSSPVFQIPKNDD [MKKS]: the “PRISMA enrichment of interactor (log2)” value in the assay with ACTBL2, Q562R1 was 4.32; with ARCN1, P48444, 4.55; with BZW1, Q7L1Q6, 5.92; in the assay with CHERP, Q8IWX8 it was 5.88; in the assay with EIF3L, Q9Y262 it was 9.28; in the assay with GAPVD1, Q14C86, 4.72. Also, the “PRISMA enrichment of interactor (log2)” value in the assay with OGT, O15294 worked out at 6.78; in the assay with PDCD6IP, Q8WUM4, 5.25; with SCPEP1, Q9HB40, 4.33; with YARS, P54577, 5.95.
In the case of EAVSVIRMHWAPRSW [SLCO5A1], the “PRISMA enrichment of interactor (log2)” value with ACTL6A, O96019 amounted to 6.04; with ARL6IP5, O75915 it was 4.51; with DCTN5, Q9BTE1 it was 4.8; with FANCI, Q9NVI1 it was 5.41; with FBXO3, Q9UK99, 5.86; in the assay with GLYR1, Q49A26, 4.9. Moreover, the “PRISMA enrichment of interactor (log2)” value in the assay with LETM1, O95202 worked out at 6.36; with MCRIP1, C9JLW8, 4.73; in the assay with RAB8A, P61006, 8.82; with RER1, O15258, 4.64; with RPRD1A, Q96P16, 7.14; with RUVBL2, Q9Y230, 7.06. The “PRISMA enrichment of interactor (log2)” value with SAFB2, Q14151 is 5.23; with SAP18, O00422, 4.81; in the assay with SNRPF, P62306, 6.6; with ZCCHC17, Q9NP64 it was 6.66.
Turning to LAVKENRECAKEHTD [RP11-620J15.3], the “PRISMA enrichment of interactor (log2)” value with ACTB, P60709 amounted to 4.92; with C18orf21, Q32NC0 it was 4.8; with CEP290, O15078 it was 6.03; with CHD4, Q14839, 8.15; in the assay with CLPB, Q9H078, 5.97; with CMSS1, Q9BQ75, 5.72. The “PRISMA enrichment of interactor (log2)” value with DHX37, Q8IY37 was 7.72; in the assay with DUSP9, Q99956, 4.14; with EIF2S2, P20042 it was 6.83; in the assay with EP300, Q09472, 5.01; with JPT2, Q9H910, 5.22; in the assay with MAP4, P27816, 5.12. The “PRISMA enrichment of interactor (log2)” value came to 3.82 in the assay with MED15, Q96RN5; 4.37 with NEK7, Q8TDX7; 5.77 in the assay with PFN2, P35080; 4.94 with RBM17, Q96I25; 4.94 in the assay with RBM27, Q9P2N5; 3.83 with RCE1, Q9Y256. For the same molecule, the “PRISMA enrichment of interactor (log2)” value was 4.71 in the assay with RFC1, P35251; 5.56 in the assay with RGPD5, Q99666; 5.71 with RRP9, O43818; 5.22 with SAFB, Q15424; 9 with SART3, Q15020; 7.97 with SNX1, Q13596. Further, the “PRISMA enrichment of interactor (log2)” value was determined as 4.43 with SURF6, O75683; 7.35 in the assay with TBCD, Q9BTW9; 4.59 in the assay with ZNF428, Q96B54.
